Assay results: article PMC3789215
These are yes or no findings as the source states them, for the method shown. Binding seen in cells or lysates may run through a third protein. Some binding calls cover weakened binding; strength is not graded here.

Chains of the proteins cited; added tags and fusions are not shown.
UniProt Q8R4B8: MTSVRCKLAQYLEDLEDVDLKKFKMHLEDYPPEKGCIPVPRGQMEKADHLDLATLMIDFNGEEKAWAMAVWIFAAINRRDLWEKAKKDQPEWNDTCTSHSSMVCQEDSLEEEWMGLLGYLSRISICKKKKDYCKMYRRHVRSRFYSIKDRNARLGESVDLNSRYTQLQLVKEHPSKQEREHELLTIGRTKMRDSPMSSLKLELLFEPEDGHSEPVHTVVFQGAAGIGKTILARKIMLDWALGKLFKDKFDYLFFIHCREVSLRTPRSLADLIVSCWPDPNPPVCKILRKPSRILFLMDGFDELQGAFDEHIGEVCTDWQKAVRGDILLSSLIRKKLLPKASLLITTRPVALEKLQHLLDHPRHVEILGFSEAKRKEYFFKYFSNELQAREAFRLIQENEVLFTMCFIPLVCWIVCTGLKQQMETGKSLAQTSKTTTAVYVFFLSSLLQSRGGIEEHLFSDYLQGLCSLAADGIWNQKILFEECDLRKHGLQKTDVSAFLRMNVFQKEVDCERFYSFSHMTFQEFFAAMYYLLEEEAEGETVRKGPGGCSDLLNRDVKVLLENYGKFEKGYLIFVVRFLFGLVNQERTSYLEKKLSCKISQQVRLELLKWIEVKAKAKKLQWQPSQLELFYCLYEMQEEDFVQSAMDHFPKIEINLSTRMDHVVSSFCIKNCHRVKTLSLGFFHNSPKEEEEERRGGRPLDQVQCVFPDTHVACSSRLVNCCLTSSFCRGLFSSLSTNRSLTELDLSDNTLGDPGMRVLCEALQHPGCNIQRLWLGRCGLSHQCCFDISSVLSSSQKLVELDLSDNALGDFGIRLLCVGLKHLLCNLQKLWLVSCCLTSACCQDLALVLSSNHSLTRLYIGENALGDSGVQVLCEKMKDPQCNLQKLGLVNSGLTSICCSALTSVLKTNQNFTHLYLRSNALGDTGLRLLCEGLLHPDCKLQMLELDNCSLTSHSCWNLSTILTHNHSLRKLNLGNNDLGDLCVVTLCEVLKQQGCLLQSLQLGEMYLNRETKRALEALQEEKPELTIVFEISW

T1: ASC [apoptosis-associated speck-like protein containing a caspase recruitment domain (CARD)] (mouse (endogenous in VAT and pancreas)) (UniProt Q9EPB4)
T1 sequence: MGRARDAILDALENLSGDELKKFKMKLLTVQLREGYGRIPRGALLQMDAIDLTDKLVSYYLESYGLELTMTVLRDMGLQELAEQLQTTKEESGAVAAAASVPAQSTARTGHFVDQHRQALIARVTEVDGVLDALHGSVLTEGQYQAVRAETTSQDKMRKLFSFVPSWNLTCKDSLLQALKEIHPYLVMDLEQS


How the values were obtained:
[1] = target: NLRP3 (NOD-like receptor family, pyrin domain containing 3) (mouse (endogenous in VAT and pancreas)) (UniProt Q8R4B8); experiment: condition: only naïve or sham-operated control mice (no SCI); co-IP; as a3, VAT lysate of naive or sham-operated control mice
[2] = target: T1, ASC [apoptosis-associated speck-like protein containing a caspase recruitment domain (CARD)] (mouse (endogenous in VAT and pancreas)); experiment: as above
[3] = target: NLRP3 (NOD-like receptor family, pyrin domain containing 3) (mouse (endogenous in VAT and pancreas)) (UniProt Q8R4B8); experiment: condition: only naïve or sham-operated control mice (no SCI); co-IP; as a5, pancreas lysate of naive or sham-operated control mice
[4] = target: T1, ASC [apoptosis-associated speck-like protein containing a caspase recruitment domain (CARD)] (mouse (endogenous in VAT and pancreas)); experiment: as above
[5] = target: NLRP3 (NOD-like receptor family, pyrin domain containing 3) (mouse (endogenous in VAT and pancreas)) (UniProt Q8R4B8); experiment: co-IP; VAT lysate of mice 1 month post-SCI; 200 ug precleared lysate, 5 ug/ml anti-NLRP3 or anti-ASC overnight at 4 C, Trueblot IgG beads, six washes in lysis buffer (1% Triton X-100, 1% Nonidet P40, 0.1% SDS); immunoblot
[6] = target: T1, ASC [apoptosis-associated speck-like protein containing a caspase recruitment domain (CARD)] (mouse (endogenous in VAT and pancreas)); experiment: as above
[7] = target: NLRP3 (NOD-like receptor family, pyrin domain containing 3) (mouse (endogenous in VAT and pancreas)) (UniProt Q8R4B8); experiment: co-IP; pancreas lysate of mice 1 month post-SCI; 200 ug precleared lysate, 5 ug/ml anti-NLRP3 or anti-ASC overnight at 4 C, Trueblot IgG beads, six washes in lysis buffer (1% Triton X-100); immunoblot
[8] = target: T1, ASC [apoptosis-associated speck-like protein containing a caspase recruitment domain (CARD)] (mouse (endogenous in VAT and pancreas)); experiment: as above

binding [1]	binding [2]	binding [3]	binding [4]	binding [5]	binding [6]	binding [7]	binding [8]	Binder
no binding	no binding	no binding	no binding	binds	binds	binds	binds	pro-forms of caspase-1 (45, 50 kDa) (protein, UniProt P29452 1-402) MADKILRAKRKQFINSVSIGTINGLLDELLEKRVLNQEEMDKIKLANITAMDKARDLCDHVSKKGPQASQIFITYICNEDCYLAGILELQSAPSAETFVATEDSKGGHPSSSETKEEQNKEDGTFPGLTGTLKFCPLEKAQKLWKENPSEIYPIMNTTTRTRLALIICNTEFQHLSPRVGAQVDLREMKLLLEDLGYTVKVKENLTALEMVKEVKEFAACPEHKTSDSTFLVFMSHGIQEGICGTTYSNEVSDILKVDTIFQMMNTLKCPSLKDKPKVIIIQACRGEKQGVVLLKDSVRDSEEDFLTDAIFEDDGIKKAHIEKDFIAFCSSTPDNVSWRHPVRGSLFIESLIKHMKEYAWSCDLEDIFRKVRFSFEQPEFRLQMPTADRVTLTKRFYLFPGH
–	–	–	–	no binding	no binding	no binding	no binding	Caspase-3 (protein, UniProt P70677 1-277) MENNKTSVDSKSINNFEVKTIHGSKSVDSGIYLDSSYKMDYPEMGICIIINNKNFHKSTGMSSRSGTDVDAANLRETFMGLKYQVRNKNDLTREDILELMDSVSKEDHSKRSSFVCVILSHGDEGVIYGTNGPVELKKLTSFFRGDYCRSLTGKPKLFIIQACRGTELDCGIETDSGTDEEMACQKIPVEADFLYAYSTAPGYYSWRNSKDGSWFIQSLCSMLKLYAHKLEFMHILTRVNRKVATEFESFSLDSTFHAKKQIPCIVSMLTKELYFYH
